{"source": "PubChem BioAssay AID1159578 – Peter MacCallum Cancer Centre – 2015", "aim": "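Knock-downs that alter how fast lymphatic endothelial cells migrate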 (primary screen)", "cells": "human lymphatic endothelial cells", "reagents": "siRNA pool against human genes, 40 nM", "timing": "48 h after transfection", "detection": "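Cells stained with dye and imaged after a scratch; covered wound area and nuclei counted, duplicates averaged, migration set against mock wells and turned into a robust z-score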", "direction": "migration robust z-score: higher = faster migration into the scratch; nuclei per well: higher = more cells in the well", "rule for the call": "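Pools averaging fewer than 3300 nuclei are never called; remaining pools count as changed when migration robust z lies outside -2 to 2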", "meaning of the calls": "active = migration changed; inactive = no migration change, or too few cells", "note": "Here is one part, drawn at random, of about 18,000 reagents tested. Over the whole deposit, about 1,030 (5.7%) got an active call. 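Inactive calls also include pools with fewer than 3300 nuclei, whose migration was not assessed.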 Raw values are not corrected between plates. Unmarked entries are inactive. Further read-outs or replicates are left out here."}
{"Target gene": "GRK2 (G protein-coupled receptor kinase 2)", "migration robust z-score": -1.9, "migration class with cell-count check": "migration z between -2 and 2; enough cells", "nuclei per well, duplicate mean": 3618}
{"Target gene": "SPAG17 (sperm associated antigen 17)", "migration robust z-score": 0.4, "migration class with cell-count check": "migration z between -2 and 2; enough cells", "nuclei per well, duplicate mean": 6168}
{"Target gene": "BEST4 (bestrophin 4)", "migration robust z-score": -0.62, "migration class with cell-count check": "migration z between -2 and 2; enough cells", "nuclei per well, duplicate mean": 7286}
{"Target gene": "TNS2 (tensin 2)", "migration robust z-score": 1.54, "migration class with cell-count check": "migration z between -2 and 2; enough cells", "nuclei per well, duplicate mean": 4926}
{"Target gene": "DCBLD2 (discoidin, CUB and LCCL domain containing 2)", "migration robust z-score": -1.25, "migration class with cell-count check": "migration z between -2 and 2; enough cells", "nuclei per well, duplicate mean": 5153}
{"Target gene": "ALAS2 (5'-aminolevulinate synthase 2)", "migration robust z-score": "-2.77 (active)", "migration class with cell-count check": "migration z below -2; enough cells", "nuclei per well, duplicate mean": 4503}
{"Target gene": "ASIC5 (acid sensing ion channel subunit family member 5)", "migration robust z-score": -0.46, "migration class with cell-count check": "migration z between -2 and 2; enough cells", "nuclei per well, duplicate mean": 4248}

A run of entries of the results above, for reference:
{"Target gene": "GRK2 (G protein-coupled receptor kinase 2)", "migration robust z-score": -1.9, "migration class with cell-count check": "migration z between -2 and 2; enough cells", "nuclei per well, duplicate mean": 3618}
{"Target gene": "SPAG17 (sperm associated antigen 17)", "migration robust z-score": 0.4, "migration class with cell-count check": "migration z between -2 and 2; enough cells", "nuclei per well, duplicate mean": 6168}
{"Target gene": "BEST4 (bestrophin 4)", "migration robust z-score": -0.62, "migration class with cell-count check": "migration z between -2 and 2; enough cells", "nuclei per well, duplicate mean": 7286}

More reagents follow.
{"Target gene": "ANKRD13A (ankyrin repeat domain 13A)", "migration robust z-score": 1, "migration class with cell-count check": "migration z between -2 and 2; enough cells", "nuclei per well, duplicate mean": 5274}
{"Target gene": "KRTAP1-1 (keratin associated protein 1-1)", "migration robust z-score": 0.25, "migration class with cell-count check": "migration z between -2 and 2; enough cells", "nuclei per well, duplicate mean": 6083}
{"Target gene": "ZNF326 (zinc finger protein 326)", "migration robust z-score": -1.62, "migration class with cell-count check": "migration z between -2 and 2; enough cells", "nuclei per well, duplicate mean": 4408}
{"Target gene": "TMEM121 (transmembrane protein 121)", "migration robust z-score": -0.02, "migration class with cell-count check": "migration z between -2 and 2; enough cells", "nuclei per well, duplicate mean": 6024}
{"Target gene": "MAP3K9 (mitogen-activated protein kinase kinase kinase 9)", "migration robust z-score": 0.94, "migration class with cell-count check": "migration z between -2 and 2; enough cells", "nuclei per well, duplicate mean": 5888}
{"Target gene": "LRRC75A (leucine rich repeat containing 75A)", "migration robust z-score": 0.1, "migration class with cell-count check": "migration z between -2 and 2; enough cells", "nuclei per well, duplicate mean": 6446}
{"Target gene": "HID1 (HID1 domain containing)", "migration robust z-score": -0.03, "migration class with cell-count check": "migration z between -2 and 2; enough cells", "nuclei per well, duplicate mean": 5596}
{"Target gene": "AHCYL1 (adenosylhomocysteinase like 1)", "migration robust z-score": -1.58, "migration class with cell-count check": "migration z between -2 and 2; enough cells", "nuclei per well, duplicate mean": 4833}
{"Target gene": "CARD16 (caspase recruitment domain family member 16)", "migration robust z-score": -0.25, "migration class with cell-count check": "migration z between -2 and 2; enough cells", "nuclei per well, duplicate mean": 6854}
{"Target gene": "OR1D5 (olfactory receptor family 1 subfamily D member 5)", "migration robust z-score": 0.73, "migration class with cell-count check": "migration z between -2 and 2; enough cells", "nuclei per well, duplicate mean": 6226}
{"Target gene": "SMC3 (structural maintenance of chromosomes 3)", "migration robust z-score": 0.44, "migration class with cell-count check": "migration z between -2 and 2; enough cells", "nuclei per well, duplicate mean": 6043}
{"Target gene": "SELENOK (selenoprotein K)", "migration robust z-score": -0.05, "migration class with cell-count check": "migration z between -2 and 2; enough cells", "nuclei per well, duplicate mean": 6038}
{"Target gene": "PRR25 (proline rich 25)", "migration robust z-score": -1.04, "migration class with cell-count check": "migration z between -2 and 2; enough cells", "nuclei per well, duplicate mean": 5616}
{"Target gene": "SPHKAP (SPHK1 interactor, AKAP domain containing)", "migration robust z-score": -1.34, "migration class with cell-count check": "migration z between -2 and 2; enough cells", "nuclei per well, duplicate mean": 5036}
